Measured values from US20230416382A1.
No constants are given. Whether binding was seen depends on the method and setting. Some binding calls cover weakened binding; strength is not graded here.

Biological target: cynomolgus CCR8 (Macaca fascicularis (cynomolgus))
Assay: flow cytometry titration on cyCCR8_293 (HEK293) cells, anti-hIgG BV421 secondary

B1: I3145 (antibody, V domains shown)
VH: EVQLVETGGGLIQPGGSLRLSCAASGFTVSSNYMSWVRQAPGKGLEWVSVIYSGGSTYYADSVKGRFTISRDNSKNTLYLQMNSLRAEDTAVYYCARGLGSADYWGQGTLVTVSS
VL: DVVMTQSPLSLPVTLGQPASISCRSSQSLLHSNGNTYLNWFQQRPGQSPRRLIYKVSIRDSGVPDRFSGSGSGTDFTLKISRVEAEDVGLYYCMQSTQWPITFGGGTKLEIK
binding: binds
